Measurements: patent US20160272716A1 (AGENSYS, published 2016)
No constants are given. Whether binding was seen depends on the method and setting. Some results given as binding are weak or reduced against the parent protein; the word gives no strength.

The chains behind the UniProt entries cited, without tags or fusion partners. Where a name states a change or a piece, a line headed by the entry shows the natural chain unless it says otherwise.
UniProt P36888: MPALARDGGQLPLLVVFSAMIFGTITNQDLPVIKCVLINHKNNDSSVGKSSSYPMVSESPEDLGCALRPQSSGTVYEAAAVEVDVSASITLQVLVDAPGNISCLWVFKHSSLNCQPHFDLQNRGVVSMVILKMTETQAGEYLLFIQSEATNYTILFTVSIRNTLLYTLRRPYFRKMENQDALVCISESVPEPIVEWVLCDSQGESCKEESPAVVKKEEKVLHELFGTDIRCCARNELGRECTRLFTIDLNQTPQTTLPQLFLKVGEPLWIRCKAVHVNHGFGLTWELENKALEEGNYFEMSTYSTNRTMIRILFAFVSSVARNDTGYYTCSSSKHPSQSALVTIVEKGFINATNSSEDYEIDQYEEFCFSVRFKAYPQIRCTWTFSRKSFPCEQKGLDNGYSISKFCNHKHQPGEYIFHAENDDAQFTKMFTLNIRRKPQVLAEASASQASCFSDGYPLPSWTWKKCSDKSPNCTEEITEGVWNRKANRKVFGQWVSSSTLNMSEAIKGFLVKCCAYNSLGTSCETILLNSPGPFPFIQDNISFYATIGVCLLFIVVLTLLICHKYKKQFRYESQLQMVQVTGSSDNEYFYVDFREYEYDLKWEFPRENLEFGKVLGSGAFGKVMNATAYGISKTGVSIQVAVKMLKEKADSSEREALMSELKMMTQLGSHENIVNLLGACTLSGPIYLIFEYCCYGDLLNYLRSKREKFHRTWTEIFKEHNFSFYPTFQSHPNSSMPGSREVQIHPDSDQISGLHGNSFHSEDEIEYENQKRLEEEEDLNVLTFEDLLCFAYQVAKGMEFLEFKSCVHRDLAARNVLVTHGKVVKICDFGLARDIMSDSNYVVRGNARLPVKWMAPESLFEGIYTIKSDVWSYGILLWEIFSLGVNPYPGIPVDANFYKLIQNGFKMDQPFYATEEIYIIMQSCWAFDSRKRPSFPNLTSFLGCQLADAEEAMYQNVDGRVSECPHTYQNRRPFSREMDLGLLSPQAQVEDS

Target: recombinant human FLT3 protein (human) (UniProt P36888)
Test: ELISA on FLT3 recombinant protein

binding: binds
B1: v62-1b21 (hybridoma MAb) (antibody, V domains shown)
VH: EVQLVESGGGLVRPGGSLRLSCAASGFTFSGYSINWVRQAPGKGLEWVSSISSSSNYIYYADSVKGRFTISRDNAKNSLYLQMNSLRAEDTAVYYCAREGFIAGTTFDAFDIWGQGTMVTVSS
VL: DIQMTQSPSSLSASVGDRVTITCRASQGIRNDLGWYQQKPGKAPKRLIYAASSLQSGVPSRFSGSGSGTEFTLTISSLQPEDFATYYCLQHNGFPYTFGQGTKLEIKR
notes: also called AGS62.21; v62.21
